The test addresses OsMADS57 (rice (Oryza sativa)) (UniProt Q6Z6W2). Nature of the test: two-hybrid; yeast two-hybrid; OsMADS57 in pGBKT7, SLR1 in pGADT7; following the manufacturer's instructions (Clontech).

The chains behind the UniProt entries cited, without tags or fusion partners.
UniProt Q6Z6W2: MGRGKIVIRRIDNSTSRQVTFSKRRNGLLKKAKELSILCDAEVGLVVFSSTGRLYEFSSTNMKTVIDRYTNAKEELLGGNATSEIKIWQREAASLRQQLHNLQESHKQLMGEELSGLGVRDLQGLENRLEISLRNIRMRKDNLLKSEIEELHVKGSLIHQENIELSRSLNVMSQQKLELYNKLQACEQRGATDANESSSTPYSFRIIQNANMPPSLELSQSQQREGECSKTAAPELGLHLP

These are yes or no findings as the source states them, for the method shown.

B1: SLENDER1 (SLR1) (protein, UniProt Q7G7J6 1-625)
chain: MKREYQEAGGSSGGGSSADMGSCKDKVMAGAAGEEEDVDELLAALGYKVRSSDMADVAQKLEQLEMAMGMGGVSAPGAADDGFVSHLATDTVHYNPSDLSSWVESMLSELNAPLPPIPPAPPAARHASTSSTVTGGGGSGFFELPAAADSSSSTYALRPISLPVVATADPSAADSARDTKRMRTGGGSTSSSSSSSSSLGGGASRGSVVEAAPPATQGAAAANAPAVPVVVVDTQEAGIRLVHALLACAEAVQQENFAAAEALVKQIPTLAASQGGAMRKVAAYFGEALARRVYRFRPADSTLLDAAFADLLHAHFYESCPYLKFAHFTANQAILEAFAGCHRVHVVDFGIKQGMQWPALLQALALRPGGPPSFRLTGVGPPQPDETDALQQVGWKLAQFAHTIRVDFQYRGLVAATLADLEPFMLQPEGEADANEEPEVIAVNSVFELHRLLAQPGALEKVLGTVHAVRPRIVTVVEQEANHNSGSFLDRFTESLHYYSTMFDSLEGGSSGQAELSPPAAGGGGGTDQVMSEVYLGRQICNVVACEGAERTERHETLGQWRNRLGRAGFEPVHLGSNAYKQASTLLALFAGGDGYRVEEKEGCLTLGWHTRPLIATSAWRVAAA
As to B1, the binding entry is recorded as “no binding”.

Source of the values: article PMC6538746, “Rice transcription factor OsMADS57 regulates plant height by modulating gibberellin catabolism”.
